63 compounds from PubChem BioAssay AID493014 (National Center for Advancing Translational Sciences (NCATS), 2011) can be followed below.

Structures are written as SMILES. The list shows a part of the results. The main result of the screen is listed elsewhere. These columns were measured beside it and carry no call. The list favours compounds with an active or inconclusive main result. Words in brackets tell the shape of the fitted curve; partial curves, single points and poor fits give uncertain potencies.

This assay is described as follows: qHTS Assay to Find Inhibitors of Chronic Active B-Cell Receptor Signaling. The following applies: ABC-DLBCL IkBa-CBG/CBR reporter, luminescence ratio (green luciferase fused to IkBa over red control in TMD8 lymphoma cells), 4 h. In a few lines: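 Cell line TMD8 (human ABC DLBCL), stably expressing tet-inducible CBG68-IkBa fusion and CBR; IMDM/0.5% FBS; cpd up to 46 uM; dox induction, 4 h, 37C/5% CO2; dual luminescence; green/red ratio; MG132 control.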
In general terms: Quantitative high-throughput screening tests each substance at several concentrations.

Setting [1] is: measured here: CBR red luminescence, cell number.
Where [2] appears, read: measured here: IkBa-CBG green luminescence.

The AC50 is the concentration at which the activity in the assay is half-maximal.

Take `CCOC(=O)C(=CNc1ccc(NC2=NCC(C)(C)S2)cc1)C(=O)OCC`: under setting [1], the concentration at half-maximal activity (AC50) is 5.62 µM [falling, full curve, poor fit].
Regarding `COc1cccc(/C=N/Nc2nc(Nc3ccccc3)nc(-n3nc(C)cc3C)n2)c1O`, the AC50 under setting [1] was 8.2 µM [falling, partial curve, poor fit] and the half-maximal activity concentration (AC50) under setting [2] was 2.06 µM [falling, partial curve, poor fit].
As to `Cc1ccc(/C(N)=N/OC(=O)Cc2ccccc2)cc1`, under setting [1], the AC50 is 1.3 µM [rising, partial curve].
Regarding `NC1=C(c2ccc(F)cc2)C(=O)CS1`, the AC50 under setting [1] was 2 µM [falling, partial curve, poor fit].
The same measure, in the same setting: as for `COC(=O)C(NC(C)=O)(Nc1nc(C)cs1)C(F)(F)F` (stereo not drawn), the figure is 5.17 µM [rising, single point]; as for `CC1CCc2sc(C(=O)NN=C3CCC(c4ccccc4)CC3)cc2C1` (stereo not drawn), 20.6 µM [falling, single point].
On to `CC1=Nn2c(nnc2-c2cc(C)[nH]n2)SC1`, for which, under setting [1], the half-maximal activity concentration (AC50) was 3.16 µM [rising, full curve, poor fit].
For the compound `On1ccccc1=S`, the concentration at half-maximal activity (AC50) was 2.91 µM [rising, partial curve] under setting [1] and 0.411 µM [falling, full curve] under setting [2].
As to `O=c1oc2ccccc2c(Cl)c1CN1CCCCC1`, the AC50 under setting [1] was 11.2 µM [falling, partial curve].
The same measure, in the same setting: as for `Nc1nncn1C(=O)CCCN1C(=O)c2ccccc2C1=O`, the figure is 3.66 µM [rising, full curve, poor fit]; as for `COC(CNC(=O)CSCc1nc(-c2ccc(SC)cc2)oc1C)OC`, 20 µM [rising, single point]; as for `Cc1cc(C)c2c(=O)c(/C=C3\NC(=S)NC3=O)coc2c1`, 0.891 µM [rising, full curve].
Same read-out and setting: to `Cn1cc(CN(Cc2ccccc2)C[C@@H]2CCC(=O)N2)c(-c2ccccc2F)n1` belongs 35.5 µM [falling, single point].
In the case of `O=Cc1cn(Cc2ccccc2)nc1-c1cccnc1`, the half-maximal activity concentration (AC50) under setting [1] was 20 µM [falling, single point].
`O=C(Nc1nnc(-c2ccccc2F)s1)C1CCN(S(=O)(=O)c2ccc(Cl)cc2)CC1`: the concentration at half-maximal activity (AC50) under setting [1] is 14.6 µM [rising, partial curve].
Take `Cn1c(C(=O)N2CCCC(C(=O)NCCCc3ccccc3)C2)cc2sccc21` (stereo not drawn): the concentration at half-maximal activity (AC50) under setting [1] is 2.06 µM [falling, single point].
Consider `COC(=O)c1ccsc1NC(=O)CCc1ccccc1`, for which the AC50 under setting [1] is 14.1 µM [falling, single point].
`COc1ccc(S(=O)(=O)N(C)c2ccc(C(=O)N3CCOCC3)cc2)cc1`: the AC50 under setting [1] was 5.8 µM [falling, single point].
On to `COc1cc(/C=N/NC(=O)c2ccc3c(c2)OCCO3)cc(Cl)c1O`, for which the half-maximal activity concentration (AC50) under setting [1] was 12.6 µM [falling, partial curve, poor fit].
Consider `Cc1cccc(NC(=S)NC(=O)/C=C/c2ccco2)c1`, for which the concentration at half-maximal activity (AC50) under setting [2] is 22.4 µM [falling, single point].
`CC(=O)Nc1ccc(-c2csc(N/N=C\c3ccncc3)n2)cc1`: under setting [1], the AC50 is 1.78 µM [rising, partial curve, poor fit].
Take `CCc1cccc2c(C(=O)CN3C(=O)NC4(CCCCCC4)C3=O)c[nH]c12`: the AC50 under setting [1] was 0.146 µM [falling, partial curve, poor fit].
In the case of `CC1CCN(Cc2cc(=O)oc3cc(O)c(Cl)cc23)CC1`, the AC50 under setting [1] is 5.62 µM [rising, single point].
For `O=C(Nc1ccc(Cl)c(Cl)c1)N1CCC(c2ccccc2)C1` (stereo not drawn), the concentration at half-maximal activity (AC50) under setting [1] is 6.31 µM [falling, partial curve, poor fit].
Regarding `CCOCCCn1c(C)nc2c[n+](CC(=O)c3ccc4ccccc4c3)cc(Br)c21`, under setting [1], the concentration at half-maximal activity (AC50) was 35.5 µM [rising, single point].
Take `Nc1c(-c2ccc(Cl)cc2)cnn1-c1cccc(C(F)(F)F)c1`: under setting [1], the AC50 is 0.708 µM [falling, partial curve, poor fit].
For the compound `OC1CCCN(Cc2cn(Cc3ccccc3)nc2-c2cc3ccccc3o2)C1` (stereo not drawn), under setting [1], the AC50 was 25.1 µM [falling, single point].
The same measure, in the same setting: as for `Cc1ccc(S(=O)(=O)c2c(N)n(/N=C/c3ccco3)c3nc4ccccc4nc23)cc1C`, the figure is 7.08 µM [falling, full curve, poor fit].
Turning to `N/C(=N\c1nc2c(c(=O)[nH]1)CCCC2)Nc1ccccc1Sc1ccccc1`, under setting [1], the AC50 is 0.517 µM [rising, full curve, poor fit].
As for `CC(C)c1nc(N2CCOCC2)c(C#N)c2c1CCCC2`, the half-maximal activity concentration (AC50) under setting [1] is 5.17 µM [rising, full curve, poor fit].
`COc1cccc(OCCNC(=O)c2cccc(OC)c2)c1`: under setting [1], the AC50 is 29.1 µM [falling, single point].
In the case of `O=C(NCc1ccccc1)c1cccc(COc2cc(Cl)ccc2Cl)c1`, the AC50 under setting [1] was 2.91 µM [rising, partial curve, poor fit].
Turning to `COc1ccc(NC(=O)[C@@H]2CCCN2S(=O)(=O)c2ccccc2F)cc1S(=O)(=O)N1CCCCC1`, the AC50 under setting [1] was 2.91 µM [rising, full curve, poor fit].
`C=CCC[C@H](Cc1ccc(F)cc1)C(=O)O[C@H](CNC(=O)[C@@H](CC=C)CC(=O)N(CCO)Cc1ccccc1)c1ccccc1`: the half-maximal activity concentration (AC50) under setting [1] was 16.4 µM [falling, partial curve].
On the same count and under the same terms, as for `CC(C)Cc1csc(NC(=O)C(C)C)c1C(=O)O`, the figure is 12.6 µM [falling, single point]; as for `COc1cccc(C2=Nc3cccc4cccc(c34)N2)c1`, 18.4 µM [falling, single point]; as for `COc1ccccc1N1CCN(C(=O)CSc2nc3ncnc(N)c3[nH]2)CC1`, 2.31 µM [rising, partial curve].
Regarding `CCn1cc(C(=O)OC)c(=O)c2cc(S(=O)(=O)N(C)C3CCCCC3)ccc21`, the concentration at half-maximal activity (AC50) under setting [2] is 35.5 µM [rising, partial curve, poor fit].
Turning to `NNC(=O)C1CC1(c1ccccc1)c1ccccc1` (stereo not drawn), the AC50 under setting [1] was 14.1 µM [falling, single point].
On to `C#CCOCCOCCOCCNc1nc(N2CCN(C(=O)[C@H]([C@@H](C)CC)n3cc(CCCN=C(N)N)nn3)CC2)nc(N2CCN(C(=O)[C@H](CCCCN)n3cc(CCC(=O)O)nn3)CC2)n1`, for which, under setting [1], the AC50 was 16.4 µM [rising, partial curve, poor fit].
For the compound `COc1ccccc1CCNc1ncnc2c1nnn2C`, the AC50 under setting [1] was 17.8 µM [falling, partial curve].
On the same count and under the same terms, to `Oc1ccccc1/C=N/n1c(COc2ccccc2)n[nH]c1=S` belongs 35.5 µM [rising, single point]; to `CN1CCN(CC(=O)Nc2cc(N(C)C)nc3ccccc23)CC1`, 11.2 µM [falling, single point].
As for `CCCCc1nnc(NC(=O)Cc2ccc(S(=O)(=O)N3CCOCC3)s2)s1`, the half-maximal activity concentration (AC50) under setting [1] is 18.4 µM [rising, single point].
Regarding `COC(=O)c1ccccc1NC(=O)Nc1cc(C(C)(C)C)on1`, the concentration at half-maximal activity (AC50) under setting [1] was 20 µM [rising, partial curve, poor fit].
Turning to `O=C(Nc1ccc(N2CCOCC2)cc1)c1cc2c(s1)CCCC2`, the AC50 under setting [1] is 20 µM [rising, partial curve, poor fit].
Turning to `CCn1ccnc1CN1CCc2c([nH]c3ccccc23)C1C(C)(C)C` (stereo not drawn), the AC50 under setting [1] was 15.8 µM [falling, single point].
Same read-out and setting: to `COc1ccc(OC)c2c(C)cc(C)nc12` belongs 1.84 µM [rising, partial curve, poor fit]; to `CCN1CCN(c2cc(C)c3cc(NC(=S)N4CC(C)CC(C)C4)ccc3n2)CC1` (stereo not drawn), 7.94 µM [falling, partial curve, poor fit].
On the same count and under the same terms, as for `O=C(Nc1ccccc1)c1cccc(=O)o1`, the figure is 35.5 µM [falling, single point].
Turning to `Cc1ccc(-n2sc3ccccc3c2=O)cc1`, the half-maximal activity concentration (AC50) reads like this: under setting [1], 13 µM [falling, partial curve]; under setting [2], 6.51 µM [falling, single point].
Turning to `O=C(Oc1ccc(Cl)cc1)c1ccc2nccnc2c1`, the AC50 by setting is: under setting [1], 5.8 µM [falling, single point]; under setting [2], 6.51 µM [rising, partial curve, poor fit].
As to `O=C(NCC#CCOCc1ccccc1)c1ccccc1`, the AC50 under setting [1] is 0.411 µM [rising, full curve, poor fit].
For the compound `CCOC(=O)C1=C(C)NC(SCC(=O)Nc2nc(C)cs2)=C(C#N)C1c1cccs1` (stereo not drawn), the AC50 by setting is: under setting [1], 20 µM [falling, partial curve, poor fit]; under setting [2], 6.31 µM [rising, partial curve, poor fit].
Regarding `COc1ccc(N(CC(=O)O)S(=O)(=O)c2ccc(OC)c(OC)c2)cc1`, under setting [1], the AC50 is 25.9 µM [rising, single point].
Consider `CCC[N+]1(CC#CC(O)(c2ccccc2)C2CCCCC2)CCCCC1` (stereo not drawn), for which the AC50 under setting [1] is 35.5 µM [falling, single point].
For `Cc1cccc(/C=N\NC(=O)c2csnn2)c1`, under setting [1], the AC50 is 35.5 µM [falling, partial curve, poor fit].
With `N#Cc1c(SCC(=O)Nc2ccccc2C(F)(F)F)sc2c(O)cc(=O)[nH]c12`, the half-maximal activity concentration (AC50) under setting [1] was 17.8 µM [falling, single point].
Still for that read-out and setting: as for `CCOc1ccc(C(=O)NC(=S)Nc2ccc(NC(=O)C(C)C)cc2)cc1[N+](=O)[O-]`, the figure is 2.59 µM [rising, full curve, poor fit]; as for `CCOC(=O)c1ccc(NC(=O)COC(=O)Cc2csc(-c3ccccc3)n2)cc1`, 7.31 µM [rising, partial curve, poor fit]; as for `CNC(=O)C(NC(=O)Nc1ccc(C)cc1)C(C)(C)C` (stereo not drawn), 10 µM [rising, partial curve].
As to `CCN1/C(=C2\C(=O)N(C)C(=S)N2C)C=Cc2cc(OC)ccc21`, under setting [1], the AC50 is 14.6 µM [rising, partial curve, poor fit].
`CCN1CCN(c2cc(C)c3cc(NC(=O)c4ccc(Br)o4)ccc3n2)CC1`: under setting [1], the concentration at half-maximal activity (AC50) was 0.631 µM [falling, full curve, poor fit].
